Publication PMC4254451, “The Crystal Structures of Apo and cAMP-Bound GlxR from Corynebacterium glutamicum Reveal Structural and Dynamic Changes upon cAMP Binding in CRP/FNR Family Transcription Factors”

Target: T1, GlxR (Cg-GlxR) (Corynebacterium glutamicum) (UniProt Q79VI7)
T1 sequence (looked up): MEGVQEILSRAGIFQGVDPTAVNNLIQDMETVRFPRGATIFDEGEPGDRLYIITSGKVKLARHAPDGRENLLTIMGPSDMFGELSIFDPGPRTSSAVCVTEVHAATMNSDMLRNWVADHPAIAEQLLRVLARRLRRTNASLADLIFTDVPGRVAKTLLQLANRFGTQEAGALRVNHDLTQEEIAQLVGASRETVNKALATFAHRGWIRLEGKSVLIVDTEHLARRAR
Test: fluorescence anisotropy
Conditions: no cAMP (apo); 100 mM KH2PO4 pH 7.8, 200 mM KCl, 1 mM 1-thioglycerol, 0 or 1.5 mM cAMP, 5 nM labelled DNA; temperature not stated; recombinant protein; residues 1-227; protein details: His6 (N-terminal, pET16b); label: 5'-FITC on strand 1

ATTAATGTGAGTTAGCTCACTCATTA (double strand) [FITC-labelled 26-mer duplex]
Kd: 8.3 µM

For at least one entry, the source does not settle the construct or the ends of the probe. Where a protein sequence is shown, tags need not be part of it.
